In this assay the test system is CD8F1 mice, subcutaneous mammary adenocarcinoma, T/C%. The assay is described as follows: NCI In Vivo Anticancer Drug Screen. Data for tumor model Mammary Adenocarcinoma CD8F1 (subcutaneous) in CD8F1. The settings on record: higher T/C = larger tumour. An outline of the steps:
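Mice carrying transplanted tumors received test compound, and survival or tumor size was recorded. Each value is the treated-group measurement divided by the corresponding measurement in vehicle-dosed controls.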

Where [1] appears, read: T/C endpoint: median tumor weight change, dose: 500.0 mg/kg/injection, schedule: Q01DX001 (ip), vehicle: saline with Tween-80.
Setting [2] is: T/C endpoint: median tumor weight change, dose: 1000.0 mg/kg/injection, schedule: Q01DX001 (ip), vehicle: saline with Tween-80.

The list shows only some results of the screen, not a fair sample: it is rich in T/C values a quarter to a half above the control, in often repeated tests (any T/C) and in doses without a T/C. Further doses and runs are listed elsewhere. T/C gives the treated animals as a percentage of the vehicle group. Schedules are NCI's codes, read here as Q, the interval in days (D) or hours (H), X, the number of doses. Some T/C values carry the count of animals alive at the toxicity check (mostly the fifth day); without a count, all were alive then. Some T/C values are negative: the treated tumours shrank. Some entries give survivors of the animals treated and no T/C: the source holds a T/C of zero for them, seemingly a mark for toxic or unscored doses. Survivors were counted at the toxicity check, usually on the fifth day, unless a day is given; later deaths do not show. Some entries hold several experiments; the results are listed from low to high.

For `C/C(=N\NC(N)=O)c1cccc(/C(C)=N/NC(N)=O)n1`, under setting [1], the survivor count is given as 2 of 10 on day 30.
For `CC1(O)CC23CC(O)C4(O)C(CC(O)C4(C)C)C(C)(O)C2CCC1C3O` (configuration not stated), the survivor count (T/C endpoint: median tumor weight change, dose: 1.0 mg/kg/injection, schedule: Q01DX001 (ip), vehicle: Klucel (hydroxypropylcellulose) (HPC)) is 4 of 10 on day 42; the survivor count (T/C endpoint: median tumor weight change, dose: 2.0 mg/kg/injection, schedule: Q01DX001 (ip), vehicle: Klucel (hydroxypropylcellulose) (HPC)) is given as 0 of 10 on day 42; the survivor count (T/C endpoint: median tumor weight change, dose: 4.0 mg/kg/injection, schedule: Q01DX001 (ip), vehicle: Klucel (hydroxypropylcellulose) (HPC)) was 1 of 10 on day 42.
`O=[N+]([O-])c1ccc(N2CCOCC2)c2c1no[n+]2[O-]`: the survivor count under setting [2] is on record as 5 of 10 on day 29.
Regarding `COc1cccc2c1C(=O)c1c(O)c3c(c(O)c1C2=O)C[C@@](O)(C(=O)CO)C[C@@H]3OC1CC(OC(C)=O)C(OC(C)=O)C(C)O1` (some centres not stated), the survivor count is on record as 5 of 10 on day 30 (T/C endpoint: median tumor weight (est.), dose: 50.0 mg/kg/injection, schedule: Q07DX005 (ip), vehicle: distilled water + Tween-80) and 0 of 10 on day 30 (T/C endpoint: median tumor weight (est.), dose: 100.0 mg/kg/injection, schedule: Q07DX005 (ip), vehicle: distilled water + Tween-80).
As to `COc1cc(OC)c(NC(=O)ON2C(=O)c3ccccc3C2=O)cc1Cl`, for the setting “T/C endpoint: median tumor weight change, dose: 250.0 mg/kg/injection, schedule: Q01DX001 (ip), vehicle: saline with Tween-80, evaluated on day 25”, the T/C is 148 % of control.
As for `CCC1=C[C@H]2CN(CCc3c([nH]c4ccccc34)[C@@](C(=O)OC)(c3cc4c(cc3OC)N(C)[C@H]3[C@@](O)(C(=O)OC)[C@H](OC(C)=O)[C@]5(CC)C=CCN6CC[C@]43[C@@H]65)C2)C1`, the T/C was 143 % of control [8 of 10 alive on day 35] (T/C endpoint: median tumor weight change, dose: 1.0 mg/kg/injection, schedule: Q01DX001 (ip), vehicle: water, evaluated on day 35); 146 % of control (T/C endpoint: median tumor weight change, dose: 2.0 mg/kg/injection, schedule: Q01DX001 (ip), vehicle: water, evaluated on day 35); 40 % of control (T/C endpoint: median tumor weight change, dose: 2.5 mg/kg/injection, schedule: Q01DX001 (ip), vehicle: water, evaluated on day 32); 66 % of control (T/C endpoint: median tumor weight change, dose: 2.5 mg/kg/injection, schedule: Q01DX001 (ip), vehicle: water, evaluated on day 33); 91 % of control (T/C endpoint: median tumor weight change, dose: 2.5 mg/kg/injection, schedule: Q01DX001 (ip), vehicle: water, evaluated on day 35); 75 % of control (T/C endpoint: median tumor weight change, dose: 2.5 mg/kg/injection, schedule: Q01DX001 (ip), vehicle: water, evaluated on day 64). For the same molecule, the T/C reads like this: (T/C endpoint: median tumor weight change, dose: 5.0 mg/kg/injection, schedule: Q01DX001 (ip), vehicle: water, evaluated on day 32) 63 % of control [9 of 10 alive on day 32]; (T/C endpoint: median tumor weight change, dose: 5.0 mg/kg/injection, schedule: Q01DX001 (ip), vehicle: water, evaluated on day 33) 87 % of control; (T/C endpoint: median tumor weight change, dose: 5.0 mg/kg/injection, schedule: Q01DX001 (ip), vehicle: water, evaluated on day 35) 86 % of control; (T/C endpoint: median tumor weight change, dose: 5.0 mg/kg/injection, schedule: Q01DX001 (ip), vehicle: water, evaluated on day 64) 14 % of control; (T/C endpoint: median tumor weight change, dose: 10.0 mg/kg/injection, schedule: Q01DX001 (ip), vehicle: water, evaluated on day 32) 17 % of control; (T/C endpoint: median tumor weight change, dose: 10.0 mg/kg/injection, schedule: Q01DX001 (ip), vehicle: water, evaluated on day 33) 54 % of control. Moreover, the T/C by setting is: (T/C endpoint: median tumor weight change, dose: 10.0 mg/kg/injection, schedule: Q01DX001 (ip), vehicle: water, evaluated on day 35) 9 % of control [9 of 10 alive on day 35]; (T/C endpoint: median tumor weight change, dose: 10.0 mg/kg/injection, schedule: Q01DX001 (ip), vehicle: water, evaluated on day 64) 97 % of control; (T/C endpoint: median tumor weight change, dose: 20.0 mg/kg/injection, schedule: Q01DX001 (ip), vehicle: water, evaluated on day 33) -3 % of control [7 of 10 alive on day 33]. Further, the survivor count is 2 of 10 on day 35 (T/C endpoint: median tumor weight change, dose: 16.0 mg/kg/injection, schedule: Q01DX001 (ip), vehicle: water); 3 of 10 on day 35, 5 of 10 on day 32, 6 of 10 on day 64 (T/C endpoint: median tumor weight change, dose: 20.0 mg/kg/injection, schedule: Q01DX001 (ip), vehicle: water); 0 of 10 on day 32 and 0 of 10 on day 33 (T/C endpoint: median tumor weight change, dose: 40.0 mg/kg/injection, schedule: Q01DX001 (ip), vehicle: water).
Take `O=[N+]([O-])c1ccc(Cl)c([N+](=O)[O-])c1`: the T/C (T/C endpoint: median tumor weight (est.), dose: 15.0 mg/kg/injection, schedule: Q07DX005 (ip), vehicle: saline with Tween-80, evaluated on day 30) was 126 % of control.
As to `COc1ccc(C(N)=O)cc1N=NN(C)C`, the survivor count (T/C endpoint: median tumor weight (est.), dose: 200.0 mg/kg/injection, schedule: Q07DX005 (ip), vehicle: Klucel (hydroxypropylcellulose) (HPC)) is given as 0 of 10 on day 30.
On to `CCN(CC)CCC(=O)c1ccccc1`, for which the T/C (T/C endpoint: median tumor weight change, dose: 62.5 mg/kg/injection, schedule: Q01DX001 (ip), vehicle: saline with Tween-80, evaluated on day 26) was 131 % of control. The survivor count (T/C endpoint: median tumor weight change, dose: 125.0 mg/kg/injection, schedule: Q01DX001 (ip), vehicle: saline with Tween-80) is 5 of 10 on day 26; the survivor count (T/C endpoint: median tumor weight change, dose: 250.0 mg/kg/injection, schedule: Q01DX001 (ip), vehicle: saline with Tween-80) is recorded as 0 of 10 on day 26; the survivor count under setting [1] is reported as 0 of 10 on day 26; the survivor count under setting [2] was 0 of 10 on day 26.
Take `O=NN(CCCl)C(=O)NC1OC(CO)C(O)C(O)C1O` (configuration not stated): the survivor count by setting is: (T/C endpoint: median tumor weight (est.), dose: 20.0 mg/kg/injection, schedule: Q07DX005 (ip), vehicle: saline) 4 of 10 on day 30; (T/C endpoint: median tumor weight (est.), dose: 40.0 mg/kg/injection, schedule: Q07DX005 (ip), vehicle: saline) 0 of 10 on day 30.
Regarding `CC(=O)c1c(O)c(C)c(O)c2c1OC1=CC(=O)C(C(C)=O)C(=O)C12C` (configuration not stated), the T/C (T/C endpoint: median tumor weight (est.), dose: 200.0 mg/kg/injection, schedule: Q07DX004 (ip), vehicle: gum acacia, evaluated on day 30) is 132 % of control.
On to `Oc1c(Cl)cc(C(c2cc(Cl)c(O)c(Cl)c2)C(c2cc(Cl)c(O)c(Cl)c2)c2cc(Cl)c(O)c(Cl)c2)cc1Cl`, for which the survivor count (T/C endpoint: median tumor weight (est.), dose: 400.0 mg/kg/injection, schedule: Q07DX005 (ip), vehicle: Klucel (hydroxypropylcellulose) (HPC)) is given as 3 of 10 on day 30.
Regarding `O=C1C=C[C@H](O)[C@@]2(CO)O[C@@H]12`, the survivor count runs as follows: (T/C endpoint: median tumor weight change, dose: 25.0 mg/kg/injection, schedule: Q01DX001 (ip), vehicle: saline with Tween-80) 0 of 10 on day 27; (T/C endpoint: median tumor weight change, dose: 50.0 mg/kg/injection, schedule: Q01DX001 (ip), vehicle: saline with Tween-80) 0 of 10 on day 27.
For `CC(=O)O[C@@H]1CO[C@H]2O[C@H]3[C@@H](C(C=O)=C[C@H](O)[C@@H]4C5=C(C(C)C)CC[C@]5(C)CC[C@@]34C)[C@@]2(O)C1=O`, the survivor count is 2 of 10 on day 28 and 3 of 10 on day 25 (T/C endpoint: median tumor weight change, dose: 30.0 mg/kg/injection, schedule: Q01DX001 (ip), vehicle: Klucel (hydroxypropylcellulose) (HPC)); 0 of 10 on day 25 and 0 of 10 on day 28 (T/C endpoint: median tumor weight change, dose: 60.0 mg/kg/injection, schedule: Q01DX001 (ip), vehicle: Klucel (hydroxypropylcellulose) (HPC)); 0 of 10 on day 25 and 0 of 10 on day 28 (T/C endpoint: median tumor weight change, dose: 120.0 mg/kg/injection, schedule: Q01DX001 (ip), vehicle: Klucel (hydroxypropylcellulose) (HPC)).

For the origin of these results see PubChem BioAssay AID220 (DTP/NCI, 2004).
